Reference: PubChem BioAssay AID1671195 (Yale University, 2021)

- Test: 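Genes whose knockdown alters LDL uptake in liver cancer cells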 (primary screen)
- Cell system: human Huh7 hepatoma cells
- Knock-down reagent: siRNA pool against human genes, 18 nM
- Duration: about 2 to 2.5 days of knockdown, then 8 h LDL uptake
- Treatment: DiI-labelled LDL at 30 µg/ml for 8 h, in lipoprotein-deficient serum medium
- Read-out: 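Fluorescent LDL signal imaged in cells, scaled to the plate median, robust z-score for each replicate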
- Scale: robust z-score: higher = more LDL uptake after knockdown
- Rule for the call: 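Active when two or more replicates show a robust z-score above 2 or below -2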
Here is a random part of about 22,000 reagents tested. In the full data, about 1,510 (6.9%) were called active. 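Active includes knockdowns raising or lowering LDL uptake; positive z-scores mean more uptake, negative mean less.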

PSMG2 (proteasome assembly chaperone 2) showed robust z-score, replicate 1 = -1.23; robust z-score, replicate 2 = -0.919; robust z-score, replicate 3 = -1.95; inactive. Silencing of NRN1L (neuritin 1 like) came out at: robust z-score, replicate 1 = 1.89; robust z-score, replicate 2 = 4.26; robust z-score, replicate 3 = 4.1; active. KMT5B (lysine methyltransferase 5B) scored robust z-score, replicate 1 = -1.52; robust z-score, replicate 2 = -1.94; robust z-score, replicate 3 = -0.807; inactive. NAT1 (N-acetyltransferase 1) showed robust z-score, replicate 1 = -0.772; robust z-score, replicate 2 = -0.261; robust z-score, replicate 3 = 0.445; inactive. Against BAX (BCL2 associated X, apoptosis regulator), the values are robust z-score, replicate 1 = 0.115; robust z-score, replicate 2 = 0.175; robust z-score, replicate 3 = -0.768; inactive. RAD54L (RAD54 like) gave robust z-score, replicate 1 = -1.62; robust z-score, replicate 2 = -1.93; robust z-score, replicate 3 = -2.11; active.

For CCDC167 (coiled-coil domain containing 167), the entry reads robust z-score, replicate 1 = 1.09; robust z-score, replicate 2 = 2.6; robust z-score, replicate 3 = 1.44; inactive. Depletion of SIGLEC7 (sialic acid binding Ig like lectin 7) came out at: robust z-score, replicate 1 = 0.637; robust z-score, replicate 2 = 1.06; robust z-score, replicate 3 = 1.31; inactive. KPNA3 (karyopherin subunit alpha 3) showed robust z-score, replicate 1 = -0.532; robust z-score, replicate 2 = -0.476; robust z-score, replicate 3 = -0.429; inactive. For LOC387859 (retired record), the entry reads robust z-score, replicate 1 = 0.0953; robust z-score, replicate 2 = -0.375; robust z-score, replicate 3 = 0.193; inactive. TKTL1 (transketolase like 1) showed robust z-score, replicate 1 = 0.0744; robust z-score, replicate 2 = 0.422; robust z-score, replicate 3 = 0.288; inactive. With knock-down of SORBS3 (sorbin and SH3 domain containing 3), the screen gave robust z-score, replicate 1 = -0.393; robust z-score, replicate 2 = -0.64; robust z-score, replicate 3 = 0.0348; inactive.
